The record followed here is publication PMC7819943, “Rice protein-binding microarrays: a tool to detect cis-acting elements near promoter regions in rice”.

The other results are listed elsewhere or left out.

The target of the assay is T1, OsSMF1 (Oryza sativa, UniProt Q6ZLB0 1-436).
T1 sequence: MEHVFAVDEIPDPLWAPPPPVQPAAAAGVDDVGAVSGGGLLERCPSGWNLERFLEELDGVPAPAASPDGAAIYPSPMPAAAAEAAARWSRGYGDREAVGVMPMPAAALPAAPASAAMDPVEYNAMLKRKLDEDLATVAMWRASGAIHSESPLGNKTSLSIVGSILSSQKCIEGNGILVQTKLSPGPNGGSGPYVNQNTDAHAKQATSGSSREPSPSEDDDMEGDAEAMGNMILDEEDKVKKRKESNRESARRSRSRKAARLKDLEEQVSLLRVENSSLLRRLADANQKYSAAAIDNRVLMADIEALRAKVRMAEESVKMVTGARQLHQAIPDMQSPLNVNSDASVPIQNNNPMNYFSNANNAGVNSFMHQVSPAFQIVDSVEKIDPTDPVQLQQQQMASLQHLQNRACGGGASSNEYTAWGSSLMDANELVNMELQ
In words: protein-binding microarray (RPBM); PBS, 2% BSA, 51.3 ng/ul salmon testes DNA, 50 uM zinc acetate, 200 nM TF, 25 C, 1 h; high values mean tight binding. As to conditions: protein: recombinant; tags: N-terminal polyhistidine and DsRed monomer fusion (pET32a); chain copies: 2; label: CyDye5-dUTP incorporated in the synthesized complementary strand; 3' TTTTT single-stranded linker to array surface; dsDNA, one strand shown. In a few lines:
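Per-feature fluorescence intensity (arbitrary units), read on an Axon 4000B scanner, is the binding signal. Transcription factors carrying an N-terminal polyhistidine tag and DsRed fusion were expressed in E. coli BL21-CodonPlus and purified on Ni–NTA. A custom Agilent array, made double-stranded by primer extension with Cy5-dUTP and blocked with 2% BSA, was incubated with 200 nM protein in PBS, 2% BSA, salmon testes DNA and 50 µM zinc acetate at 25 °C for 1 h and then washed.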
As to “GACTAATCTGCAAAGCTTTCCACCAGGCCAGGTTGGCTGGCGGAGTCACCTAGTGCAG”, the binding signal was 17800 fluorescence intensity (a.u.).

As for “TGGGACGCCGTACACTCCCTCAGCAGCCGCCTCGCATTCTCGGAGTCACCTAGTGCAG”, the binding signal is 3730 fluorescence intensity (a.u.).

“GACTCCAACTAAGCCCAGAAGTTCTATTCTATCTGAATAACGGAGTCACCTAGTGCAG”: the binding signal was 33400 fluorescence intensity (a.u.).

Consider “AACCAGAGAAACCTGAGGCACCACCATCACCACCACCGCCCGGAGTCACCTAGTGCAG”, for which the binding signal is 3840 fluorescence intensity (a.u.).

In the case of “TCATTGGGAGGAGGTGATGTCAACGGGCCAAGTCAGAAAGCGGAGTCACCTAGTGCAG”, the binding signal was 7020 fluorescence intensity (a.u.).

With “AGGGATGGAGGTGACGACTCTGTGGCCTCATCCTGTTGGCCGGAGTCACCTAGTGCAG”, the binding signal was 3780 fluorescence intensity (a.u.).

Take “GAAAGAATGTTTATCTTAGAAAGTATAGTGTGCCACGCAACGGAGTCACCTAGTGCAG”: the binding signal was 4260 fluorescence intensity (a.u.).

“TTCGAAAGTCAATTTGCATTTGACAATGGCAGATACGGATCGGAGTCACCTAGTGCAG”: the binding signal was 3370 fluorescence intensity (a.u.).

As to “GGCGCGGCGCGGCGCGGCGTGGCGTCTCGTCTCGACCCATCGGAGTCACCTAGTGCAG”, the binding signal was 3570 fluorescence intensity (a.u.).

As to “ATCCACGTCATCCATGACATGGCCTCAATGTTTTCACACACGGAGTCACCTAGTGCAG”, the binding signal is 18000 fluorescence intensity (a.u.).

On to “GCCAAGCCAAACCAATCCAAGCCAAGCCAAATGAATGATTCGGAGTCACCTAGTGCAG”, for which the binding signal is 3150 fluorescence intensity (a.u.).

Turning to “AATTAGGCTTAAAAGACTCGTCACATAATTTACACGCAATCGGAGTCACCTAGTGCAG”, the binding signal is 3530 fluorescence intensity (a.u.).

As to “CAATTCCGACGAAATCCGGTCGGATTTCACGAAATTTCGACGGAGTCACCTAGTGCAG”, the binding signal was 20600 fluorescence intensity (a.u.).

As to “ATATTGCAGAAACAAACACATCAGGTGACGTTAGTTCAAACGGAGTCACCTAGTGCAG”, the binding signal was 4280 fluorescence intensity (a.u.).

With “ATCGTCATGCGCACGTGGCAGTTTCAACGTAGCCACGCCCCGGAGTCACCTAGTGCAG”, the binding signal was 9640 fluorescence intensity (a.u.).

With “TTAAAGAAATGGTTGGTGCTGCTCCGACTCCCTGTTTCCTCGGAGTCACCTAGTGCAG”, the binding signal was 16200 fluorescence intensity (a.u.).

Take “AGTTTGCTGCCCACTTCAGTAGGTTACAATACAATTATACCGGAGTCACCTAGTGCAG”: the binding signal was 65300 fluorescence intensity (a.u.).

On to “TCTGTAGTACTCCACATCATACGCTGGCTGGACGTCATTACGGAGTCACCTAGTGCAG”, for which the binding signal is 6180 fluorescence intensity (a.u.).

Take “ATGATCAGATACACACTCTGGCTTGGCTTGTAGCTGCAACCGGAGTCACCTAGTGCAG”: the binding signal was 50400 fluorescence intensity (a.u.).

Regarding “GAATATCTACAGATAGAAAAGATGCATCATCAGCTTGTCTCGGAGTCACCTAGTGCAG”, the binding signal was 3540 fluorescence intensity (a.u.).

As for “GTGGGTGGTTGGTGGTGGTGGTGGTGGTGGTGATCTTTGGCGGAGTCACCTAGTGCAG”, the binding signal is 4920 fluorescence intensity (a.u.).

“AGGTGACACGTCGTCACCTCTATTTCCCCTTTCTCTCTTTCGGAGTCACCTAGTGCAG”: the binding signal was 18500 fluorescence intensity (a.u.).

As for “GTTGCCTCTTAATTTATGAGTGAATGATGTGGATAAATTTCGGAGTCACCTAGTGCAG”, the binding signal is 4770 fluorescence intensity (a.u.).

As to “GTCCCGGCGTGCGGGCGTGGTGCTTCTCCCTTCGCTGTCGCGGAGTCACCTAGTGCAG”, the binding signal was 3570 fluorescence intensity (a.u.).

Regarding “GCAAAATAGAGTTAGGTCGGGATCACACGAATCTGTAAGACGGAGTCACCTAGTGCAG”, the binding signal was 29800 fluorescence intensity (a.u.).

Take “TTTTGCTGACTAGGATATACCACATCAGCAAAACCCGATACGGAGTCACCTAGTGCAG”: the binding signal is 12400 fluorescence intensity (a.u.).

In the case of “TTGTACTGTTGTGTCATCGCGGTCCCTAAACTCGCAAATTCGGAGTCACCTAGTGCAG”, the binding signal is 5730 fluorescence intensity (a.u.).

Regarding “CTCATCAGTTGACCCCTGTCAATTTAGTGTGACTATGTGACGGAGTCACCTAGTGCAG”, the binding signal is 3700 fluorescence intensity (a.u.).

As for “TTCTGTAACTTTTCCAACTCACCTTCCTCGCTTCCCACGCCGGAGTCACCTAGTGCAG”, the binding signal is 4820 fluorescence intensity (a.u.).

Consider “ATTCTTCCACACGAGATTGACTACATGGGCATCGAGAAATCGGAGTCACCTAGTGCAG”, for which the binding signal was 3890 fluorescence intensity (a.u.).

Regarding “ACTGCATTATAACTACAGTGTAAGCACGGTAACTCCAATGCGGAGTCACCTAGTGCAG”, the binding signal was 3450 fluorescence intensity (a.u.).

For the sequence “GCGATTGATGTTGCTGGCCAGGTGCAGTATCACCTGTAAGCGGAGTCACCTAGTGCAG”, the binding signal is 4160 fluorescence intensity (a.u.).

With “TTCTTCTCAAGCTCTCTCAGTTGTGTTACAAGGATCGATGCGGAGTCACCTAGTGCAG”, the binding signal is 4640 fluorescence intensity (a.u.).

Regarding “GCCAGGATCCACCATCACTGAGACGCTGACTCCTCATTCGCGGAGTCACCTAGTGCAG”, the binding signal was 4720 fluorescence intensity (a.u.).

With “AGGTGGTGTGATGTGAAAGTAAATTTGTCATCCCCGGTGCCGGAGTCACCTAGTGCAG”, the binding signal was 4390 fluorescence intensity (a.u.).

As to “CGCGTGCGTGCGTGCGCGTTTCCACCCGATTTAAAGAGACCGGAGTCACCTAGTGCAG”, the binding signal was 11800 fluorescence intensity (a.u.).

For “GGTGTGTGCCCACTCGTCACGTGTATGCCATGCCTGACACCGGAGTCACCTAGTGCAG”, the binding signal was 3580 fluorescence intensity (a.u.).

Take “AGGCACCGCCCCGCCGCCAGCGCCACCACATCGTCCGACGCGGAGTCACCTAGTGCAG”: the binding signal is 3370 fluorescence intensity (a.u.).

For the sequence “CAAATGTATAAGATATAAATCACACTTAAAGTACTATGAGCGGAGTCACCTAGTGCAG”, the binding signal was 3150 fluorescence intensity (a.u.).

For the sequence “CATCGACCTCGCCAAGGCCGACGTCGACCGTGACCACGTCCGGAGTCACCTAGTGCAG”, the binding signal is 3740 fluorescence intensity (a.u.).

As for “CTCAACATCCCTTATATTTCCCTATTCTTGCAGAATGTGCCGGAGTCACCTAGTGCAG”, the binding signal is 3330 fluorescence intensity (a.u.).

“TATGAAACCTGAAAACAACTTAACACGGGTGTCCTTCGTCCGGAGTCACCTAGTGCAG”: the binding signal was 17500 fluorescence intensity (a.u.).
